This assay relates to total class I and II HDAC enzyme activity in resting CD4 T cells. As to conditions: pulse RMD 4 hours, VOR 24 hours, PNB 24 hours, 6 to 48 hours. The method, then:
Resting CD4 T cells obtained from HIV-infected patients on suppressive cART were incubated with serial dilutions of HDACi in 96-well plates at 10,000 cells/well for indicated time and then lysed by repeated freezing and thawing. Total cellular HDAC activity was measured using the HDAC-Glo I/II assay kit (Promega) according to the manufacturer's protocol.

On to `O=C(CCCCCCC(=O)Nc1ccccc1)NO` [VOR, suberoylanilide hydroxamic acid], for which the “persistence of inhibition of cell-associated HDAC activity” value was “transient and decreased after 24 hours of incubation”.

These data come from article PMC3983056 (PLoS Pathogens, 2014).
